Data as given in publication PMC5149022 (Iranian Journal of Pharmaceutical Research : IJPR, 2016).

Key:
[1] = general procedure: Fmoc solid-phase peptide synthesis; Sieber amide resin; DIC/HOBt/DIPEA; conditions: whole synthesis, overall, based on removal of the first Fmoc group, side-chain lactam ring
[2] = general procedure: Fmoc solid-phase peptide synthesis; Sieber amide resin, substitution 0.65 mmol/g; DIC/HOBt/DIPEA; conditions: whole synthesis, UV 280 nm, side-chain lactam ring

In the case of [HYNIC-GABA-Nle]-CycMSHhept, the isolated yield [1] was 35% and the “final HPLC purity” value [2] was >98%.
